Laboratory results: the supplement of paper PMC10849652
Some of the results follow.

Chains of the proteins cited; added tags and fusions are not shown. Lines headed by an entry give the natural chain unless they say otherwise; changes in a name come on top.
UniProt Q9BVP2: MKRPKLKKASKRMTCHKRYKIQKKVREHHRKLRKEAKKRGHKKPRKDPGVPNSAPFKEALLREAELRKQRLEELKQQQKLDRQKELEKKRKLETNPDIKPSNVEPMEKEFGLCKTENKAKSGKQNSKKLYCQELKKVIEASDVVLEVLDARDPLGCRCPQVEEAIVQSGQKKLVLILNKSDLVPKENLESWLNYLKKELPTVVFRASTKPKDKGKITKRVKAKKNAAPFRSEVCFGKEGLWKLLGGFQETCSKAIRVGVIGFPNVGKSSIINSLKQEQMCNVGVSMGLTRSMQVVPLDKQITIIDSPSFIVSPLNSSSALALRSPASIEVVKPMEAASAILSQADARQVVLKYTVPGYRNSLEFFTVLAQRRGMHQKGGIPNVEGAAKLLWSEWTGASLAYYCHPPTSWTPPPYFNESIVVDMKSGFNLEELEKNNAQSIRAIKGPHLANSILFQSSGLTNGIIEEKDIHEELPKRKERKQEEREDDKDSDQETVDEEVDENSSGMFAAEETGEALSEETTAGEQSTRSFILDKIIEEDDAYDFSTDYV
UniProt Q86VQ1: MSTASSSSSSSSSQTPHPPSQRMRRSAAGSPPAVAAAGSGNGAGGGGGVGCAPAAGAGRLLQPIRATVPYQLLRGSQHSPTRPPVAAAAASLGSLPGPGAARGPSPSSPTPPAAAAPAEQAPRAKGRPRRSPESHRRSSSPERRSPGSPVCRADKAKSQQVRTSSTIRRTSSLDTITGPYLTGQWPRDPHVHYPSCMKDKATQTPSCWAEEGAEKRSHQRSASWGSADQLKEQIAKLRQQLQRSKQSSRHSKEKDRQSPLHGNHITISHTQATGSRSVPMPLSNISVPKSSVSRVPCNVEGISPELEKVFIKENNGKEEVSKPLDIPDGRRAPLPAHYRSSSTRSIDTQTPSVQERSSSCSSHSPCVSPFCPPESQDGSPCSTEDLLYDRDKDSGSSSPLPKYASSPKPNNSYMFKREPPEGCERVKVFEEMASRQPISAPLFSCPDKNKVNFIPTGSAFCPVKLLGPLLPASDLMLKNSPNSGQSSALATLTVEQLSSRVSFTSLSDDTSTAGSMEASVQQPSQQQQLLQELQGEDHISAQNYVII
UniProt P00367: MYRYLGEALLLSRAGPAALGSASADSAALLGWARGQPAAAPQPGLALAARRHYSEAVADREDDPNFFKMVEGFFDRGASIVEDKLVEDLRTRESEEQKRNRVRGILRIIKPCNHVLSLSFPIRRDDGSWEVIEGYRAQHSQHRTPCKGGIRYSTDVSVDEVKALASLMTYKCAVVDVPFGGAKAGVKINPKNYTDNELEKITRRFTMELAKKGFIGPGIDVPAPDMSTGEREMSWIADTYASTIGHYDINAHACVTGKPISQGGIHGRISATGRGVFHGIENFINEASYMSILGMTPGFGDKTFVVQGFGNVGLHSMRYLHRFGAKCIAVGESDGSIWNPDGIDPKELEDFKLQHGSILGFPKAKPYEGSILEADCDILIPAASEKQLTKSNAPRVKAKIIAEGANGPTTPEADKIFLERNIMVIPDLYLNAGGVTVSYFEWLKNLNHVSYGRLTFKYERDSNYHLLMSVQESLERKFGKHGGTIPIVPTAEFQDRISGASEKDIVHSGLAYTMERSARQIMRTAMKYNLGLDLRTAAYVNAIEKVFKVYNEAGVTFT
UniProt P62993, whole entry, looked up: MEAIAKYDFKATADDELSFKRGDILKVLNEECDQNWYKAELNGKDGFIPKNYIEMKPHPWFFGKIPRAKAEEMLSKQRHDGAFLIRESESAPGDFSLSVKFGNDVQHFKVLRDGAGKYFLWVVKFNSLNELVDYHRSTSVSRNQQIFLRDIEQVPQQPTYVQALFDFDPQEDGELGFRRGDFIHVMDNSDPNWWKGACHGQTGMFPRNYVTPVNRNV
UniProt P00505: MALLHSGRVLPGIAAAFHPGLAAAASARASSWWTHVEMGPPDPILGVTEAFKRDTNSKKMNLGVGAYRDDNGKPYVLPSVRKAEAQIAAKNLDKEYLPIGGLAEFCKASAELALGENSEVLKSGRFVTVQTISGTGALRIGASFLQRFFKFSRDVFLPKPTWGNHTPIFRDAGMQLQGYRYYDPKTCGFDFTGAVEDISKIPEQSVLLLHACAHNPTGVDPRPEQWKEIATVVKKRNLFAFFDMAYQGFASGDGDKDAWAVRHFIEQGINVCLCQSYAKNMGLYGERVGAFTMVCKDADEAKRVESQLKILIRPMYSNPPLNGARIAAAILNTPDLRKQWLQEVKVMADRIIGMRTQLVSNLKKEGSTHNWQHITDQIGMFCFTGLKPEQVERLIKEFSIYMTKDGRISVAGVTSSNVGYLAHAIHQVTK
UniProt Q9Y692: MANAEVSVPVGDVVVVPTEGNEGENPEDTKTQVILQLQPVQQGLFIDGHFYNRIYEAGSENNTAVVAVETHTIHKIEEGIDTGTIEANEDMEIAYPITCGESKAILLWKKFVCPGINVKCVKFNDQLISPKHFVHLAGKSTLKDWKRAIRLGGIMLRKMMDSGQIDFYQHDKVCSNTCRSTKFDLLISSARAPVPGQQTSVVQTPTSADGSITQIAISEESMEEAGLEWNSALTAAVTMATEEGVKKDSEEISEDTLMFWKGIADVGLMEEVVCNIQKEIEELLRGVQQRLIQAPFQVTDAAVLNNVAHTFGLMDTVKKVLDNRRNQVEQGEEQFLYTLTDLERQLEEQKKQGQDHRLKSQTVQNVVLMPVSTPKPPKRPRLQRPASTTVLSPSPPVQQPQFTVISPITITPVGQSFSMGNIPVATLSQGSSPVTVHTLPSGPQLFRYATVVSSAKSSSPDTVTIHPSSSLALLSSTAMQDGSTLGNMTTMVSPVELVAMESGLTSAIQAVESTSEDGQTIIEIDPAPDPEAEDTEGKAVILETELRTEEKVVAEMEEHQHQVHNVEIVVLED
UniProt O95249: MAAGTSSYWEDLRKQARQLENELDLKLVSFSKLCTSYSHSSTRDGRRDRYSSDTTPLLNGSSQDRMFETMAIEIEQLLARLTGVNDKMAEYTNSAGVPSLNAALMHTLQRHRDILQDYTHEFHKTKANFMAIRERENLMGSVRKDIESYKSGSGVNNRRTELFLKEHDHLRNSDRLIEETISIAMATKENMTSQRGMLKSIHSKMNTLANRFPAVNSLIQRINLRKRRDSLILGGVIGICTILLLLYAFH
UniProt Q9UKJ3: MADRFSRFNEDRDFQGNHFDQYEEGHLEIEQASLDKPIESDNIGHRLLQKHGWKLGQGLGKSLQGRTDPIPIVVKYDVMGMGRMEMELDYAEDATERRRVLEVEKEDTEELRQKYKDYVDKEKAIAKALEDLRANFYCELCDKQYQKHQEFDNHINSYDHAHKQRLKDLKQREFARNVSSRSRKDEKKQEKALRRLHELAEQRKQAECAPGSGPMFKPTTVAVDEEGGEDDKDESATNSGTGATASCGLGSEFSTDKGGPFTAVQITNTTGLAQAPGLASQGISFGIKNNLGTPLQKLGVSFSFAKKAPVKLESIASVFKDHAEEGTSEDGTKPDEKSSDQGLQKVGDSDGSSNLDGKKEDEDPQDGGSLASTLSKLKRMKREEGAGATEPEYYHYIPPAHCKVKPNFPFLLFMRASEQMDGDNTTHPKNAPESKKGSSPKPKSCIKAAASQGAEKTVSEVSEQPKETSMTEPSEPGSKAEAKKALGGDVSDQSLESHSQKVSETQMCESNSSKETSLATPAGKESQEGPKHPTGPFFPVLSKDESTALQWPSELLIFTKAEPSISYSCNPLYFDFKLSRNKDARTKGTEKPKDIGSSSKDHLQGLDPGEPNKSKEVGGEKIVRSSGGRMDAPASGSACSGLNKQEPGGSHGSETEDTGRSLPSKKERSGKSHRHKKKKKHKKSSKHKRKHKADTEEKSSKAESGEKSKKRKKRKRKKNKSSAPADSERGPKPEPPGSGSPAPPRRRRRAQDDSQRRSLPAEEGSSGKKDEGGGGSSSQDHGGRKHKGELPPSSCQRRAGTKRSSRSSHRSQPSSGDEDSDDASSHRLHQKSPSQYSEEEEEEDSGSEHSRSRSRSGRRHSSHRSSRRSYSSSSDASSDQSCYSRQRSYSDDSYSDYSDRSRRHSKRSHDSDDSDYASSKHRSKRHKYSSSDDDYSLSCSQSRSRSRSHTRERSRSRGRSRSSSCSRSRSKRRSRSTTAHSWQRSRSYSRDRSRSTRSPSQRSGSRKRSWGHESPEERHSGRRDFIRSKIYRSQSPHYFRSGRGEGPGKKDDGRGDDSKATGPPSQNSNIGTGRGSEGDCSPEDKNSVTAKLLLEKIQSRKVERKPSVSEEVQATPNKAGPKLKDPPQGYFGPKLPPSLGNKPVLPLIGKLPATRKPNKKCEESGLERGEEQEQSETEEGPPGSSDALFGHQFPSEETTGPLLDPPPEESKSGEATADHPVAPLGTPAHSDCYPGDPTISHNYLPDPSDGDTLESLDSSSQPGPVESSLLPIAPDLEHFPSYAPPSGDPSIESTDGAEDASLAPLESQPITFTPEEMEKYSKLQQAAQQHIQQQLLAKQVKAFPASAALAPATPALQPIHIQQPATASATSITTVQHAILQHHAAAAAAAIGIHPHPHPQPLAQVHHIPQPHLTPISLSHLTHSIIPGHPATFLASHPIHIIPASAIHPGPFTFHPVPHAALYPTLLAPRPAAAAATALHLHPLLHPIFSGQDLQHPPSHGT
UniProt O14908: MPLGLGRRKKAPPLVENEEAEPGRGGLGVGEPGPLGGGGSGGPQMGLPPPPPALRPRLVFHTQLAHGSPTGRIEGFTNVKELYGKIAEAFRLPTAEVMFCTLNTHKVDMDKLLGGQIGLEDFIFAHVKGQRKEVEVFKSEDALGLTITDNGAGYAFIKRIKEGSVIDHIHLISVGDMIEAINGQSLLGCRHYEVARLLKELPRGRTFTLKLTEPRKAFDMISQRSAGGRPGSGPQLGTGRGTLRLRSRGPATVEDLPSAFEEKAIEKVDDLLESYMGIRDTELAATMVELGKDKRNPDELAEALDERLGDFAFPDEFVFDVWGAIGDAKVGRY
UniProt Q9NS18: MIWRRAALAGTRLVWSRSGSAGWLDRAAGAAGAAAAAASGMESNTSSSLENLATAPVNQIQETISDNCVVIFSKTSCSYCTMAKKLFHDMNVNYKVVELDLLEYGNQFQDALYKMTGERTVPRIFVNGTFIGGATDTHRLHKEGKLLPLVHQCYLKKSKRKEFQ
UniProt Q14344, whole entry, looked up: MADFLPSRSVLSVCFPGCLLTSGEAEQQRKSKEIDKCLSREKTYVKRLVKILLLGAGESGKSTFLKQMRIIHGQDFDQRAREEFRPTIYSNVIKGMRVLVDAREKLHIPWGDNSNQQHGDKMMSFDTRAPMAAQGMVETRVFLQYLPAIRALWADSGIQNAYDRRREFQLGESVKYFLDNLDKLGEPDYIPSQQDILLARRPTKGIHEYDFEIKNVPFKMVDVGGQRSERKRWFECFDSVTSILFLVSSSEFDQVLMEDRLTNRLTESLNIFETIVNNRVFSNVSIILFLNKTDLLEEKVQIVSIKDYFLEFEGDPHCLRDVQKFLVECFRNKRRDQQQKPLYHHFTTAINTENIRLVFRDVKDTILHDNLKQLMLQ
UniProt P25098: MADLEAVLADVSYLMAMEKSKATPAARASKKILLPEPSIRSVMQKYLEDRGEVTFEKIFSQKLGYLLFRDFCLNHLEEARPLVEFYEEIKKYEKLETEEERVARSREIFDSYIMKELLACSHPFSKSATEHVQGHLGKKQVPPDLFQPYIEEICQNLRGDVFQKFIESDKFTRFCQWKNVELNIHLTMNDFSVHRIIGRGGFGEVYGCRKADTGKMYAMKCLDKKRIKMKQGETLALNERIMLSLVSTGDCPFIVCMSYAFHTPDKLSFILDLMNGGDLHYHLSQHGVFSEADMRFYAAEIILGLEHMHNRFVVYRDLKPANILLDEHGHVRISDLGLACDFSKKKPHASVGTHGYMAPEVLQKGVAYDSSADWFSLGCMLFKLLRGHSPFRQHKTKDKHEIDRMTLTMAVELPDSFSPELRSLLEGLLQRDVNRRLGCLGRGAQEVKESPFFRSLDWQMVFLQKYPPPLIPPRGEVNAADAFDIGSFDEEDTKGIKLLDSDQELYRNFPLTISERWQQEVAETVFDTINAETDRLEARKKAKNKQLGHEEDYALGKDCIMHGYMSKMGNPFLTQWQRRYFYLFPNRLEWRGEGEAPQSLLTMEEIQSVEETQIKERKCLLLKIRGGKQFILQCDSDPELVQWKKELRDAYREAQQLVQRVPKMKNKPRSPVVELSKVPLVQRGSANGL
UniProt Q8N335: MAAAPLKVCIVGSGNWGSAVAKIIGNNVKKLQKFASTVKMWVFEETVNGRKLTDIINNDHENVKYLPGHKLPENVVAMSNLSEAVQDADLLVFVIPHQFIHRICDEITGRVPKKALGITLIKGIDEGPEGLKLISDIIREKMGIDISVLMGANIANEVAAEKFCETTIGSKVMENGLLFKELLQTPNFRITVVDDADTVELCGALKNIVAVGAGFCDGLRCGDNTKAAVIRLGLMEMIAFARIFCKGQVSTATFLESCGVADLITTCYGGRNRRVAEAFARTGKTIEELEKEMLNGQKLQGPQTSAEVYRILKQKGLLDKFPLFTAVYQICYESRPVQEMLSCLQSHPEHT

The targets below were run with c1ccc([C@@H]2C[C@H]2NC2CCNCC2)cc1 (assay: log2 fold change, soluble protein after heating vs DMSO (PISA); higher = thermal stabilisation; K562 cells, 10 uM, 30 min; active = over 0.2 and 3.5 SD of the protein, either way, in both replicates (recomputed)).
Outline: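 Values are thermal stability changes relative to control samples and are taken from duplicates. They are stated as log2 fold changes. Before quantification by TMTpro 16plex LC-MS/MS with equalised channel sums, K562 cells at 2×10^6 cells/mL were treated with 10 μM compound for 30 min, heated in aliquots for 3 min across 48°C-58°C, pooled, extracted in PBS with 0.5% NP-40 at 4°C, and centrifuged at 21,000xg for 90 min to give the soluble supernatant.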

Row | Target | log2 fold change
1 | GIGYF2 (UniProt Q6Y7W6) | inactive: -0.046
2 | GPALPP1 (UniProt Q8IXQ4) | inactive: 0.024
3 | GPN2 (UniProt Q9H9Y4) | inactive: 0.056
4 | GNL3 (UniProt Q9BVP2) | inactive: -0.053
5 | GLCCI1 (UniProt Q86VQ1) | inactive: -0.075
6 | GPRIN1 (UniProt Q7Z2K8) | inactive: 0.027
7 | GNB1 (UniProt P62873) | inactive: -0.064
8 | GOLT1B (UniProt Q9Y3E0) | inactive: 0.03
9 | GLUD1 (UniProt P00367) | inactive: -0.03
10 | GPX4 (UniProt P36969) | inactive: 0.028
11 | GOLIM4 (UniProt O00461) | inactive: -0.027
12 | GRB2 (UniProt P62993) | inactive: 0.004
13 | GPHN isoform 2 (UniProt Q9NQX3) | inactive: 0.026
14 | GMPPB isoform 2 (UniProt Q9Y5P6) | inactive: 0.037
15 | GOT2 (UniProt P00505) | inactive: 0.015
16 | GMPR (UniProt P36959) | inactive: 0
17 | GMEB1 (UniProt Q9Y692) | inactive: 0.022

Row | Target | log2 fold change
18 | GOSR1 (UniProt O95249) | inactive: -0.015
19 | GPATCH8 (UniProt Q9UKJ3) | inactive: 0.123
20 | GPAT3 (UniProt Q53EU6) | inactive: 0.019
21 | GOLIM4 (UniProt F8W785) | inactive: 0.049
22 | GNAI3 (UniProt P08754) | inactive: -0.032
23 | GLYR1 (UniProt Q49A26) | inactive: 0.067
24 | GID8 (UniProt Q9NWU2) | inactive: 0.016
25 | GRIPAP1 (UniProt Q4V328) | inactive: 0.05
26 | GMFB (UniProt P60983) | inactive: -0.034
27 | GOLGB1 isoform 2 (UniProt Q14789) | inactive: 0.045
28 | GIPC1 (UniProt O14908) | inactive: -0.009
29 | GLRX2 isoform 2 (UniProt Q9NS18) | inactive: 0.004
30 | GNB1L (UniProt Q9BYB4) | inactive: 0.004
31 | GNA13 (UniProt Q14344) | inactive: -0.008
32 | GRK2 (UniProt P25098) | inactive: -0.046
33 | GPD1L (UniProt Q8N335) | inactive: -0.009
34 | GPI (UniProt P06744) | inactive: -0.021

Exported as labelled records: entries from further up
GRIPAP1 (UniProt Q4V328)
  log2 fold change: inactive: 0.05
GMFB (UniProt P60983)
  log2 fold change: inactive: -0.034
